Data reported in PMC6753486.
Results are given in words; binding and its absence hold for the method and conditions named. Binding seen in cells or lysates may run through a third protein. Some results given as binding are weak or reduced against the parent protein; the word gives no strength. Where a sequence is shown, tags or fusion partners need not be part of it.

Key:
[1] = biological target: T1, NRPD1 lacking the C-terminal DeCL domain (deletion of amino acids 1337-1453) with C-terminal FLAG epitope (Arabidopsis thaliana) (UniProt Q9LQ02); experiment: co-IP; anti-FLAG agarose capture of FLAG-tagged NRPD1 proteins from plant lysate (50 mM Tris HCl pH 7.6, 150 mM NaCl, 5 mM MgCl2, 10% glycerol, 0.5 mM DTT, 0.1% IGEPAL), 2 h at 4°C, two washes; immunoblot with anti-NRP(D/E)2 and anti-RDR2; non-transgenic Col-0 as negative control
T1 sequence: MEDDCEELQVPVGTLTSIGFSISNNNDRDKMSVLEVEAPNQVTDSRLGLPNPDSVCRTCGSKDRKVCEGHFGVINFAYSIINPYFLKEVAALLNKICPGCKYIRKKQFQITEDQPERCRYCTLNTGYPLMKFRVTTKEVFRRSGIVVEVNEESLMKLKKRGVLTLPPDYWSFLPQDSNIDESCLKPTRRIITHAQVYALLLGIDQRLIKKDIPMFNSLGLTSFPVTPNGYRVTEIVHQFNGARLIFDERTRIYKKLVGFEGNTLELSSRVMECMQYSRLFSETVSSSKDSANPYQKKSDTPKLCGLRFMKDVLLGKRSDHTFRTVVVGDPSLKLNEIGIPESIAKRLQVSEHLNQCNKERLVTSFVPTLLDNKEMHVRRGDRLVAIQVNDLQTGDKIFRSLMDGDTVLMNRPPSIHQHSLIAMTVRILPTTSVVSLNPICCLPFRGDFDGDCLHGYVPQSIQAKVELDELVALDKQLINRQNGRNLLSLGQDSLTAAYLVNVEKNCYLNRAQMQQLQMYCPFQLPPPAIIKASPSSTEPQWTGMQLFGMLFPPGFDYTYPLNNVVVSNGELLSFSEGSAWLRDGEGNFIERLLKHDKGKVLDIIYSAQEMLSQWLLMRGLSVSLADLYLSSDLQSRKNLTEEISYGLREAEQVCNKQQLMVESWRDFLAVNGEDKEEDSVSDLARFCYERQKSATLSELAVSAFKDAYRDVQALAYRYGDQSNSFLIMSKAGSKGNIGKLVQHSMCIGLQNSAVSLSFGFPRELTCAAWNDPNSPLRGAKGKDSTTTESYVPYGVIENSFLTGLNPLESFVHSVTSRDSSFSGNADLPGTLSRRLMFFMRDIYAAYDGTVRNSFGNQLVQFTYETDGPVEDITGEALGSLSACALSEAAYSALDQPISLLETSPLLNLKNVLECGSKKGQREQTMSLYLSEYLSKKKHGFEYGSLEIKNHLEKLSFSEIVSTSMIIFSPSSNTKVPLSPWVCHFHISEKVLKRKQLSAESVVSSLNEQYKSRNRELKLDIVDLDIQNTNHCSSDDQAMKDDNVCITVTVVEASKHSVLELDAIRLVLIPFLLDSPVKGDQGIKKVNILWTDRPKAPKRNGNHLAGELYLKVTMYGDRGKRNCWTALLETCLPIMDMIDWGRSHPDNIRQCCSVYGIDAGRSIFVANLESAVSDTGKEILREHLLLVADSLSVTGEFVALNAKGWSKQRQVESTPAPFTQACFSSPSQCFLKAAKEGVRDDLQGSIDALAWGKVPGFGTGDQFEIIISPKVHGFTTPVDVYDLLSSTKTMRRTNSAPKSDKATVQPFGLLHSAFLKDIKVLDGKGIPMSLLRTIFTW

[2] = biological target: T2, full length NRPD1 (Pol IV largest subunit) with C-terminal FLAG epitope (Arabidopsis thaliana) (UniProt Q9LQ02); experiment: as above
T2 sequence: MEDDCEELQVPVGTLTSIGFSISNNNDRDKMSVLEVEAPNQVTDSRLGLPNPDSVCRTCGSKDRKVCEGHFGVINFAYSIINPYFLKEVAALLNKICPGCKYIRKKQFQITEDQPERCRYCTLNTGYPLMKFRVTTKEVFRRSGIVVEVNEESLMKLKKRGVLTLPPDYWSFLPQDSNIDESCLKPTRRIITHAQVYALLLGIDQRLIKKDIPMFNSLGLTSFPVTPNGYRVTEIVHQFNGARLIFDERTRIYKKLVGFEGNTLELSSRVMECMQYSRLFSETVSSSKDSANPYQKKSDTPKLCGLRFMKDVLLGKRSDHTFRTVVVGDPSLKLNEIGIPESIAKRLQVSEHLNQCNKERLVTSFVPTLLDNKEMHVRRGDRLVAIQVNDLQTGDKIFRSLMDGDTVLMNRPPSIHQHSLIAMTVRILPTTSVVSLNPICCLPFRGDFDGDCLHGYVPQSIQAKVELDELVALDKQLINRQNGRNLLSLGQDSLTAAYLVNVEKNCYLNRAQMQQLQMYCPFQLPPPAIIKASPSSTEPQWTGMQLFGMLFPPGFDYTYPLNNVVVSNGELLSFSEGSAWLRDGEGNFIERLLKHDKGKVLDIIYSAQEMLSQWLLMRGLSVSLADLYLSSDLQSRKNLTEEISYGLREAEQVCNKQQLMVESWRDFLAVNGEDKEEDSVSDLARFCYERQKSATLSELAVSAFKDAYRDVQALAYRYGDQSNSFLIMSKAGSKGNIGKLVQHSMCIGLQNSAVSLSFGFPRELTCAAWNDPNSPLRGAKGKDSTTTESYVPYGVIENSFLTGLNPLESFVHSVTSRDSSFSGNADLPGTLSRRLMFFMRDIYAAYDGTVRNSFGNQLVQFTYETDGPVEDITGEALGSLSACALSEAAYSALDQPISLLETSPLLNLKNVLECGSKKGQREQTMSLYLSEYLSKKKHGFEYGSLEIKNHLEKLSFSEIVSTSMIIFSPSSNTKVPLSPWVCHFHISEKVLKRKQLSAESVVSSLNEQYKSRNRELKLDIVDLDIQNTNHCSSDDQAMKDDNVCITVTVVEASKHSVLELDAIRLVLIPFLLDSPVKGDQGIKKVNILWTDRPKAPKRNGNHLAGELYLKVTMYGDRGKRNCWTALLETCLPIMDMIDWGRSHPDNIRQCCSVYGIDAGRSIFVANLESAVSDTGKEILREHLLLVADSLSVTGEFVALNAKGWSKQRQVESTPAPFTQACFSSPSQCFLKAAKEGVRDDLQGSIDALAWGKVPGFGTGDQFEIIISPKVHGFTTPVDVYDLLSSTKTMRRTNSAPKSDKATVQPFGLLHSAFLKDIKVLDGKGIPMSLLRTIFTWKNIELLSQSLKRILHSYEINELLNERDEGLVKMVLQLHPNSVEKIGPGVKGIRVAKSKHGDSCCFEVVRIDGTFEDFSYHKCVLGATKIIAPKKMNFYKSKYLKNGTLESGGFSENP

B1: RNA … RNA POLYMERASE 2 (enzyme, UniProt O82504 1-1133)
chain: MVSETTTNRSTVKISNVPQTIVADELLRFLELHLGEDTVFALEIPTTRDNWKPRDFARVQFTTLEVKSRAQLLSSQSKLLFKTHNLRLSEAYDDIIPRPVDPRKRLDDIVLTVGFPESDEKRFCALEKWDGVRCWILTEKRRVEFWVWESGDCYKIEVRFEDIIETLSCCVNGDASEIDAFLLKLKYGPKVFKRVTVHIATKFKSDRYRFCKEDFDFMWIRTTDFSGSKSIGTSTCFCLEVHNGSTMLDIFSGLPYYREDTLSLTYVDGKTFASAAQIVPLLNAAILGLEFPYEILFQLNALVHAQKISLFAASDMELIKILRGMSLETALVILKKLHQQSSICYDPVFFVKTQMQSVVKKMKHSPASAYKRLTEQNIMSCQRAYVTPSKIYLLGPELETANYVVKNFAEHVSDFMRVTFVEEDWSKLPANALSVNSKEGYFVKPSRTNIYNRVLSILGEGITVGPKRFEFLAFSASQLRGNSVWMFASNEKVKAEDIREWMGCFRKIRSISKCAARMGQLFSASRQTLIVRAQDVEQIPDIEVTTDGADYCFSDGIGKISLAFAKQVAQKCGLSHVPSAFQIRYGGYKGVIAVDRSSFRKLSLRDSMLKFDSNNRMLNVTRWTESMPCFLNREIICLLSTLGIEDAMFEAMQAVHLSMLGNMLEDRDAALNVLQKLSGENSKNLLVKMLLQGYAPSSEPYLSMMLRVHHESQLSELKSRCRILVPKGRILIGCMDEMGILEYGQVYVRVTLTKAELKSRDQSYFRKIDEETSVVIGKVVVTKNPCLHPGDIRVLDAIYEVHFEEKGYLDCIIFPQKGERPHPNECSGGDLDGDQFFVSWDEKIIPSEMDPPMDYAGSRPRLMDHDVTLEEIHKFFVDYMISDTLGVISTAHLVHADRDPEKARSQKCLELANLHSRAVDFAKTGAPAEMPYALKPREFPDFLERFEKPTYISESVFGKLYRAVKSSLAQRKPEAESEDTVAYDVTLEEAGFESFIETAKAHRDMYGEKLTSLMIYYGAANEEEILTGILKTKEMYLARDNRRYGDMKDRITLSVKDLHKEAMGWFEKSCEDEQQKKKLASAWYYVTYNPNHRDEKLTFLSFPWIVGDVLLDIKAENAQRQSVEEKTSGLVSI
binding [1]: binds | binding [2]: binds
